Data as given in PubChem BioAssay AID504774 (Drosophila RNAi Screening Center, 2011).
The deposit covers about 23,000 reagents; shown is an unselected part of those that have a named target and a result. 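Values are quantile-normalised luminescence on an arbitrary scale; higher means more cells surviving MMS.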 A plus sign joins genes that one reagent is predicted to hit. No sequences are given here.

- Aim: 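Fly genes whose loss alters survival after alkylation damage to DNA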 (primary screen)
- Cells: Drosophila Kc167 cells
- Reagent: long dsRNA against Drosophila genes, about 0.25 µg dsRNA per well
- Time to read-out: about 6 days: 3 days knock-down, then 3 days with or without MMS
- Treatment: methyl methanesulphonate 0.004% (w/v) for 3 days after knock-down
- Measured: 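ATP-dependent luminescence as a measure of live cells in MMS-exposed wells, quantile normalised within each plate, with replicate values also given as a mean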
- Direction: mean viability with MMS and viability with MMS: higher = more surviving cells after MMS

| gene | amplicon | mean viability with MMS | viability with MMS, replicate 1 | viability with MMS, replicate 2 |
| --- | --- | --- | --- | --- |
| rin | DRSC17045 | 3.32e6 | 3.81e6 | 3.70e6 |
| rin | DRSC22997 | 3.40e6 | 3.69e6 | 4.04e6 |
| Or98b | DRSC16775 | 3.61e6 | 3.98e6 | 4.21e6 |
| Or98b | DRSC21751 | 3.41e6 | 3.85e6 | 3.93e6 |
| mesh | DRSC14472 | 1.99e6 | 4.01e6 | 4.08e6 |
| mesh | DRSC15098 | 3.53e6 | 3.94e6 | 4.06e6 |
| mesh | DRSC15099 | 3.36e6 | 3.69e6 | 3.85e6 |
| kel | DRSC03554 | 3.50e6 | 3.99e6 | 3.95e6 |
| Alg11 | DRSC11647 | 3.49e6 | 3.90e6 | 4.00e6 |
| CG31548 | DRSC22640 | 3.46e6 | 3.83e6 | 4.06e6 |
| CG33096 | DRSC14440 | 3.40e6 | 4.00e6 | 3.72e6 |
| Inx3 | DRSC14857 | 3.58e6 | 4.00e6 | 4.11e6 |
| gek | DRSC04688 | 3.78e6 | 4.14e6 | 4.41e6 |
| CG17118 | DRSC02579 | 3.41e6 | 3.81e6 | 3.89e6 |
| vret | DRSC15640 | 3.58e6 | 4.07e6 | 4.05e6 |
| CG14687 | DRSC14910 | 3.54e6 | 3.97e6 | 4.05e6 |
| Aladin | DRSC18121 | 3.76e6 | 4.47e6 | 3.94e6 |
| Bmcp | DRSC10808 | 3.68e6 | 4.22e6 | 4.13e6 |
| mRpL17 | DRSC08350 | 3.55e6 | 4.00e6 | 4.03e6 |
| CG14963 | DRSC08422 | 3.39e6 | 3.88e6 | 3.82e6 |
| Srlp | DRSC15890 | 2.70e6 | 3.63e6 | 3.65e6 |
| CG14011 | DRSC02343 | 3.45e6 | 3.90e6 | 3.91e6 |
| CG17742 (retired record) | DRSC10285 | 2.92e6 | 3.50e6 | 3.51e6 |
| qtc | DRSC02364 | 3.63e6 | 4.16e6 | 4.11e6 |
| qtc | DRSC02365 | 3.31e6 | 3.78e6 | 3.64e6 |
| pall | DRSC10364 | 3.41e6 | 3.98e6 | 3.78e6 |
| CG17005 | DRSC02556 | 3.52e6 | 4.01e6 | 4.00e6 |
| snoRNA:Me28S-C3227a + snoRNA:Me18S-A1061 + snoRNA:Me28S-C3227b + 7 more | DRSC05497 | 3.57e6 | 4.16e6 | 3.91e6 |
| CG10031 | DRSC00286 | 3.77e6 | 4.17e6 | 4.22e6 |
| Polr2J | DRSC02995 | 3.57e6 | 3.91e6 | 4.19e6 |
| Cyp28d1 | DRSC03298 | 3.69e6 | 4.18e6 | 4.25e6 |
| Cyp28d1 | DRSC21331 | 3.66e6 | 4.12e6 | 4.15e6 |
| Cpr50Ca | DRSC05454 | 3.50e6 | 4.02e6 | 3.94e6 |
| Cpr50Ca | DRSC06372 | 3.49e6 | 4.08e6 | 3.81e6 |
| Cpr50Ca | DRSC06375 | 3.55e6 | 4.05e6 | 4.05e6 |
| BomT2 | DRSC06631 | 3.91e6 | 4.19e6 | 4.45e6 |
| CG9289 | DRSC03187 | 3.33e6 | 3.70e6 | 3.80e6 |
| tfc | DRSC07953 | 3.70e6 | 4.09e6 | 4.24e6 |
| tfc | DRSC07954 | 3.52e6 | 3.87e6 | 4.11e6 |
| tfc | DRSC08626 | 3.65e6 | 4.13e6 | 4.16e6 |
| tfc | DRSC21704 | 3.51e6 | 3.91e6 | 4.08e6 |
| Neos | DRSC11235 | 3.36e6 | 3.81e6 | 3.85e6 |
| Cyp316a1 | DRSC11130 | 3.54e6 | 4.01e6 | 4.03e6 |
| CG9855 | DRSC12344 | 3.59e6 | 4.01e6 | 4.12e6 |
| CG32017 | DRSC17183 | 3.54e6 | 4.11e6 | 3.92e6 |
| TBC1D16 | DRSC02841 | 3.49e6 | 3.85e6 | 4.06e6 |
| pea | DRSC07120 | 3.25e6 | 3.72e6 | 3.71e6 |
| Vinc | DRSC18728 | 3.54e6 | 4.05e6 | 3.99e6 |
| Ir40a | DRSC03732 | 3.61e6 | 4.18e6 | 4.01e6 |
| Ir40a | DRSC03733 | 3.52e6 | 4.03e6 | 3.94e6 |
| CG17575 | DRSC06682 | 3.57e6 | 3.99e6 | 4.04e6 |
| CG34057 | DRSC08375 | 3.47e6 | 3.87e6 | 4.00e6 |
| aurA | DRSC16905 | 3.39e6 | 3.85e6 | 3.88e6 |
| CG4259 | DRSC00645 | 3.54e6 | 4.14e6 | 3.89e6 |
| CG31729 | DRSC02524 | 3.43e6 | 3.79e6 | 3.93e6 |
| CG31729 | DRSC02946 | 3.56e6 | 3.91e6 | 4.16e6 |
| CG33170 | DRSC11854 | 3.60e6 | 4.10e6 | 4.05e6 |
| CG33170 | DRSC22366 | 3.75e6 | 4.09e6 | 4.30e6 |
| CG6470 | DRSC19994 | 3.53e6 | 4.04e6 | 3.97e6 |
| Ir7f | DRSC18012 | 3.60e6 | 4.00e6 | 4.16e6 |
| CBP | DRSC17746 | 3.26e6 | 3.87e6 | 4.11e6 |
| CG34459 | DRSC06973 | 3.62e6 | 4.07e6 | 4.11e6 |
| l(3)80Fj | DRSC20986 | 2.65e6 | 4.31e6 | 4.27e6 |
| l(3)80Fj | DRSC20989 | 3.72e6 | 4.24e6 | 4.10e6 |
| CG17571 | DRSC01768 | 3.53e6 | 4.10e6 | 3.90e6 |
| CG17571 | DRSC03755 | 3.61e6 | 4.09e6 | 4.11e6 |
| CG13690 | DRSC00359 | 3.48e6 | 4.00e6 | 3.88e6 |
| MRP | DRSC02942 | 3.93e6 | 4.38e6 | 4.61e6 |
